# Reference: patent US20190125735A1, “INHIBITION OF P38 MAPK FOR THE TREATMENT OF CANCER” (Board of Regents, The University of Texas System, priority 2015, published 2019)
# Sequences of proteins named here, by UniProt entry; tags and fusion partners are left off. A change or cut given only in a name is not applied to a line headed by its entry.
# UniProt P31749: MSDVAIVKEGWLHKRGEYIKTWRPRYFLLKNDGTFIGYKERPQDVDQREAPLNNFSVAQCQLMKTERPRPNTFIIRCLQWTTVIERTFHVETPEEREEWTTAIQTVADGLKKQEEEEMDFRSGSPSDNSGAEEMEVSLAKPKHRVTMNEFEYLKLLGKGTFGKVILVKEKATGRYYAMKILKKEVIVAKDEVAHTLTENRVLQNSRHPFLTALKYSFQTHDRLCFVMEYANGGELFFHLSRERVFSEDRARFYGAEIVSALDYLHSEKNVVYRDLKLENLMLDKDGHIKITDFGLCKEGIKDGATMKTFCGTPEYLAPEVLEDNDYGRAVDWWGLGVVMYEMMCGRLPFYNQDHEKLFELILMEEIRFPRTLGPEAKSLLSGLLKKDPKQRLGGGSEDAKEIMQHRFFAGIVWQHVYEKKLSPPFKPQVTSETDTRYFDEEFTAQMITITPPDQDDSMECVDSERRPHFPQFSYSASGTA
# Legend:
# [1] = tested on: HMLER-Snail cells; assay: Sphere formation in ultra-low attachment plates, HMLER-Snail cells; assay type: cell-based; conditions: Homo sapiens, read-out: Concentration of the drug that induced 50% reduction in sphere formation
# Method: (§1) FIGS. 25A-25D: p38 inhibition compromises stem cell properties in vitro. (A) HMLER-Snail cells were treated with various p38 inhibitors. Cells were seeded in ultra-low attachment plates and cultured for 7-10 days. Spheres with a diameter greater than […] were counted. The data are reported as the number of spheres formed/1000 seeded cells±SEM. Concentration of the drug that induced 50% reduction in sphere formation: SB203580—20 uM; PH797804—10 nM; LY2228820—10 nM; VX-702—50 uM. (B) SUM159 cells were treated with various p38 inhibitors. Cells were seeded in ultra-low attachment plates and cultured for 7-10 days. Spheres with a diameter greater than 75 μm were counted. The data are reported as the number of spheres formed/1000 seeded cells±SEM. Concentration of the drug that induced 50% reduction in sphere formation: SB203580—20 uM; PH797804—100 nM; LY2228820—300 nM nM; VX-702-50 uM. (C) HMLE-Snail cells were treated with various p38 inhibitors. Cells were seeded in ultra-low attachment plates and cultured for 7-10 days. Spheres with a diameter greater than 75 μm were counted. The data are reported as the number of spheres formed/1000 seeded cells±SEM. […]
# (§2) Quantification of invadopodia (Eckert et al., 2011), scratch/wound-healing assays (Sarkar et al., 2015) fluorescence-activated cell sorting (FACS), and sphere-formation assays (Mani et al., 2008) were conducted as described previously.
# [2] = tested on: SUM159 cells; assay: Sphere formation in ultra-low attachment plates, SUM159 cells; assay type: cell-based; conditions: Homo sapiens, SUM159, read-out: Concentration of the drug that induced 50% reduction in sphere formation
# Method: as §1, §2
# [3] = tested on: HMLE-Snail cells; assay: Sphere formation in ultra-low attachment plates, HMLE-Snail cells; assay type: cell-based; conditions: Homo sapiens, read-out: Concentration of the drug that induced 50% reduction in sphere formation
# Method: as §1, §2
# [4] = tested on: FOXC2 protein; assay: Western blots of FOXC2 protein in HMLER-Snail cells; assay type: cell-based; conditions: Homo sapiens, 48 h, Day 2 of treatment, read-out: Concentration of the drug that induced 50% reduction in FOXC2 protein
# Method: FIGS. 25A-25D: p38 inhibition compromises stem cell properties in vitro. (A) HMLER-Snail cells were treated with various p38 inhibitors. Cells were seeded in ultra-low attachment plates and cultured for 7-10 days. Spheres with a diameter greater than […] were counted. The data are reported as the number of spheres formed/1000 seeded cells±SEM. Concentration of the drug that induced 50% reduction in sphere formation: SB203580—20 uM; PH797804—10 nM; LY2228820—10 nM; VX-702—50 uM. (B) SUM159 cells were treated with various p38 inhibitors. Cells were seeded in ultra-low attachment plates and cultured for 7-10 days. Spheres with a diameter greater than 75 μm were counted. The data are reported as the number of spheres formed/1000 seeded cells±SEM. Concentration of the drug that induced 50% reduction in sphere formation: SB203580—20 uM; PH797804—100 nM; LY2228820—300 nM nM; VX-702-50 uM. (C) HMLE-Snail cells were treated with various p38 inhibitors. Cells were seeded in ultra-low attachment plates and cultured for 7-10 days. Spheres with a diameter greater than 75 μm were counted. The data are reported as the number of spheres formed/1000 seeded cells±SEM. […] (D) Western blots of HMLER-Snail cell treatment with various p38 inhibitors on Day 2 of treatment. Concentration of the drug that induced 50% reduction in FOXC2 protein: SB203580-10 uM; PH797804—50 nM; TAK-714-5 uM. […]
# [5] = tested on: 4T1 cells; assay: Sphere formation of 4T1 cells; assay type: cell-based, mouse
# Method: FIGS. 17A-17E: p38-mediated phosphorylation of FOXC2 at S367 regulates metastasis. (A) 4T1 cells, transduced with either empty vector (pMIG) or FOXC2 (S367E), were treated with vehicle or SB203580. Cell lysates were analyzed by immunoblotting for FOXC2, with β-actin as a loading control. (B) 4T1 cells, transduced with empty vector or FOXC2 (S367E), were subjected to a sphere-formation assay in the presence of vehicle or SB203580. Data are presented as the mean number of spheres formed/1000 seeded cells±SEM. (C) 4T1-vector or 4T1-FOXC2 (S367E) luciferase-labeled cells were orthotopically injected into mice. Mice were treated daily with vehicle or SB203580, and primary tumor growth was monitored weekly by bioluminescence. Data are presented as the total photon flux plotted over time and reported as mean±SEM. (D) Representative bioluminescent images of lungs harvested from mice in (c) at 4 weeks post-implantation. (E) The bioluminescent signal from the lungs harvested from mice in (c) was quantified to determine the incidence of metastasis. Data are reported as mean±SEM. p-values were calculated using Student's unpaired two-tailed t-test.*p<0.05; ***p<0.001 compared to the control.
# It was next tested whether p38-mediated phosphorylation of FOXC2 enhances its ability to confer metastatic competence.
# [6] = biological target: T1, Akt1 (Homo sapiens, UniProt P31749); assay: Phosphorylation of Akt1 in PCa cells; assay type: cell-based; conditions: SB203580 concentration used to treat PCa cells (5 μM)
# T1 construct: endogenous in cells; host or cells: PCa cells (LNCaP, DU145, PC3; which line is not specified)
# Method: For assessing the effect of inhibition of p38MAPK signaling, cells were treated for 7 days with 5 μM SB203580 45 (EMD-Millipore) dissolved in water. For assessing the combined effect of p38MAPK inhibition and the AR antagonist Enzalutamide (Scher et al., 2012) (SelleckChem) or the chemotherapeutic Docetaxel (LC Laboratories), cells were co-treated with SB203580 and either Enzalutamide/Docetaxel for 7 days.
# [7] = tested on: BCR-ABL+ mouse ALL cells seeded on MSCs; assay: Post-screening leukemic cell cluster formation underneath pretreated MSCs; assay type: cell-based; conditions: leukemic cells pre-treated with SB203580 (20 μM, 2 days), seeded onto imatinib-pretreated MSCs, vs control
# Description: Phase-contrast images of co-cultured MSCs and ALL cells were obtained using an Axio Observer.Z1 microscope, an AxioCam MR camera, and AxioVision software (Zeiss, Oberkochen, Germany). For screening, a cluster was defined as a group of more than five leukemic cells under the MSCs. The total number of leukemic cell clusters was the average number of clusters from three different fields (10× objective). For post-screening experiments, a cluster was defined as a group of more than 10 leukemic cells under the MSCs. The total number of leukemic cell clusters was the average number of clusters from 10 different fields (10× objective).
structure (smiles),measurement,setting,value
"C[S+]([O-])c1ccc(-c2nc(-c3ccc(F)cc3)c(-c3ccncc3)[nH]2)cc1 (centres unmarked) [SB203580, 4-(4-Fluorophenyl)-2-(4-methylsulfinylphenyl)-5-(4-pyridyl) 1H-imidazole]",IC50,[1],20 µM
same,IC50,[2],20 µM
same,IC50,[3],20 µM
same,IC50,[4],10 µM
same,Sphere-forming efficiency,[5]; 4T1-FOXC2(S367E) cells,refractory to p38 inhibition
same,Sphere-forming efficiency,[5]; vector-transduced 4T1 cells,compromised the sphere-forming efficiency
same,Phosphorylation of Akt1 (selectivity),[6],No appreciable changes in the phosphorylation of Akt1
same,Efficiency in leukemic cell cluster formation,[7],did not differ significantly
